Source: patent US8637511B2, “Aminopyrimidines useful as kinase inhibitors” (Vertex Pharmaceuticals Incorporated, priority 2005, dated 2014)
Like-named read-outs stand apart in the source and are kept apart here. Some results were stated once for a whole list of compounds, not compound by compound.

Experiments:
[1] = Microsomal stability assay; assay type: in vitro ADME
[2] = biological target: T1, Aurora-2 (Aurora A) (Homo sapiens, UniProt O14965); assay: Aurora-2 (Aurora A) inhibition assay, coupled enzyme; assay type: biochemical
T1 sequence (O14965 1-403): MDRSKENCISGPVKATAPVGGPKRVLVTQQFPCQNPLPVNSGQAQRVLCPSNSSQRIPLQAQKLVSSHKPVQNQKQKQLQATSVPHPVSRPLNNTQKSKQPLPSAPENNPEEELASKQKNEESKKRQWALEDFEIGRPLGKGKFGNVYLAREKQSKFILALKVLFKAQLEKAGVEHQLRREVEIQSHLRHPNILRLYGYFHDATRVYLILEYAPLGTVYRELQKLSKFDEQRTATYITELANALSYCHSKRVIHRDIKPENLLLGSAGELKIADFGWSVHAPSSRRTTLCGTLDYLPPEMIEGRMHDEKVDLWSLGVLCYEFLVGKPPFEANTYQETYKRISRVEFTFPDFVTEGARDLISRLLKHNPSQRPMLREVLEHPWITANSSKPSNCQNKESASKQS
How it was run: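 Coupled pyruvate kinase/lactate dehydrogenase assay with NADH in pH 7.5 Hepes containing MgCl2, DTT and NaCl, using 40 nM Aurora-2 at 30 °C. After a 10 min preincubation, enzyme addition started the reaction, and initial rates were taken over 10 min. IC50 and Ki came from non-linear regression.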

[3] = read-out: Aurora A kinase activity, Ki
[4] = read-out: Aurora A kinase Ki value

| Structure (SMILES) | stability to human liver microsomes, % remaining ([1]; after 30 minutes) [%] | Ki [2, 3] [µM] | stability to human liver microsomes, % remaining ([1]; after 60 minutes) [%] | Ki [2, 4] [µM] |
| --- | --- | --- | --- | --- |
| Cc1cc(Nc2cc(N3CC(F)(C4CC4)C3)nc(Sc3ccc(C(=O)NCC(F)(F)F)cc3)n2)[nH]n1 [Compound 205] | > 50 | < 0.025 | – | – |
| CC1=NN=C(Nc2cc(N3CCC3)nc(Sc3ccc(NC(=O)c4ccccc4)cc3)n2)C1 [Compound 52] | > 50 | < 0.025 | > 50 | – |
| Cc1cc(Nc2cc(N3CC(F)(C4CC4)C3)nc(Sc3ccc(NS(C)(=O)=O)cc3)n2)[nH]n1 [Compound 151] | > 50 | < 0.025 | > 50 | – |
| Cc1cc(Nc2cc(N3CC(N4CCOCC4)C3)nc(Sc3ccc4c(c3)CN(CC(F)(F)F)C4=O)n2)[nH]n1 [Compound 173] | > 50 | < 0.025 | – | – |
| CCC(Nc1ccc(Sc2nc(Nc3cc(C)n[nH]3)cc(N3CC(O)(C4CC4)C3)n2)cc1)C(F)(F)F (stereo not drawn) [Compound 136] | – | < 0.025 | > 50 | – |
| Cc1cc(Nc2cc(N3CCC3)nc(Sc3ccc(NC(=O)c4cc(C)nc(Cl)c4)cc3)n2)[nH]n1 [Compound 149] | > 50 | < 0.025 | – | – |
| Cc1cc(Nc2cc(N3CC(C)(F)C3)nc(Sc3ccc(NC(=O)CC(F)(F)F)cc3)n2)n[nH]1 [Compound 168, N-(4-(4-(5-methyl-1H-pyrazol-3-ylamino)-6-(3-fluoro-3-methylazetidin-1-yl)pyrimidin-2-ylthio)phenyl)-3,3,3-trifluoropropanamide] | > 50 | < 0.025 | > 50 | – |
| Cc1cc(Nc2cc(N3CCC3)nc(Sc3ccc(NC(=O)c4ccccc4OC(F)(F)F)cc3)n2)n[nH]1 [Compound 34] | > 50 | < 0.025 | – | ≤ 0.001 |
| Cc1cc(Nc2cc(N3CC(N4CCOCC4)C3)nc(Sc3ccc(NC(=O)C4(C(F)(F)F)CC4)cc3)n2)[nH]n1 [Compound 191] | > 50 | < 0.025 | – | – |
| O=C(Nc1ccc(Sc2nc(Nc3cc(C4CC4)[nH]n3)cc(N3CC(O)(C4CC4)C3)n2)cc1)C1CC1 [Compound 105] | > 50 | < 0.025 | > 50 | ≤ 0.001 |
| Cc1cc(Nc2cc(N3CCC3)nc(Sc3ccc(NC(=O)C4(C(F)(F)F)CC4)cc3)n2)[nH]n1 [Compound 142] | > 50 | < 0.025 | > 50 | – |
| Cc1cc(Nc2cc(N3CCC3)nc(Oc3ccc(NC(=O)c4ccccc4C(F)(F)F)cc3)n2)[nH]n1 [Compound 134] | > 50 | < 0.025 | > 50 | – |
| Cc1ccc(C(=O)Nc2ccc(Sc3nc(Nc4cc(C)n[nH]4)cc(N4CCC4)n3)cc2)cn1 [Compound 145] | > 50 | < 0.025 | > 50 | – |
| Cc1cc(Nc2cc(N3CCC3)nc(Sc3ccc(NC(=O)C(C)CC(F)(F)F)cc3)n2)[nH]n1 (stereo not drawn) [Compound 127] | > 50 | < 0.025 | > 50 | – |
| Cc1cc(Nc2cc(N3CC(F)(C4CC4)C3)nc(Sc3ccc(NC(=O)CC4CC4)cc3)n2)[nH]n1 [Compound 171] | > 50 | < 0.025 | > 50 | ≤ 0.001 |
| CCC(=O)Nc1ccc(Sc2nc(Nc3cc(C)n[nH]3)cc(N3CC(O)(C(F)(F)F)C3)n2)cc1 [Compound 94] | > 50 | < 0.025 | > 50 | – |

| Structure (SMILES) | stability to human liver microsomes, % remaining ([1]; after 30 minutes) [%] | Ki [2, 3] [µM] | stability to human liver microsomes, % remaining ([1]; after 60 minutes) [%] | Ki [2, 4] [µM] |
| --- | --- | --- | --- | --- |
| Cc1ccc(C(=O)Nc2ccc(Sc3nc(Nc4cc(C)[nH]n4)cc(N4CCC4)n3)cc2)cc1 [Compound 28] | > 50 | < 0.025 | – | – |
| CCOC1CN(c2cc(Nc3cc(C)[nH]n3)nc(Sc3ccc(NC(=O)c4ccccc4Cl)cc3)n2)C1 [Compound 37] | > 50 | < 0.025 | > 50 | – |
| Cc1cc(Nc2cc(N3CCC3)nc(Sc3ccc(NC(=O)c4ccc(F)cc4F)cc3)n2)n[nH]1 [Compound 44] | > 50 | < 0.025 | – | – |
| CCC(=O)Nc1ccc(Sc2nc(Nc3cc(C)n[nH]3)cc(N3CC(C)(OC(C)C)C3)n2)cc1 [Compound 95] | > 50 | < 0.025 | – | – |
| CCC(=O)Nc1ccc(Sc2nc(Nc3cc(C)n[nH]3)cc(N3CC(C)(C#N)C3)n2)cc1 [Compound 79] | > 50 | < 0.025 | > 50 | – |
| COc1ccc(C(=O)Nc2ccc(Sc3nc(Nc4cc(C)n[nH]4)cc(N4CCC4)n3)cc2)cc1 [Compound 117] | > 50 | < 0.025 | > 50 | – |
| CCC(=O)Nc1ccc(Sc2nc(Nc3cc(C)n[nH]3)cc(N3CC(C)(N4CCCC4)C3)n2)cc1 [Compound 89] | > 50 | < 0.025 | – | – |
| Cc1cc(Nc2cc(N3CC(F)C3)nc(Sc3ccc(NC(=O)c4ccccc4Cl)cc3)n2)[nH]n1 [Compound 60] | > 50 | < 0.025 | – | – |
| Cc1cc(Nc2cc(N3CCC3)nc(Sc3ccc(N(C)C(=O)c4ccccc4F)cc3)n2)n[nH]1 [Compound 10] | > 50 | < 0.025 | – | – |
| Cc1cc(Nc2cc(N3CC(O)(C4CC4)C3)nc(Sc3ccc4nc(C)ccc4c3)n2)[nH]n1 [Compound 153] | > 50 | < 0.025 | > 50 | – |
| CCC(=O)Nc1ccc(Sc2nc(Nc3cc(C4CC4)n[nH]3)cc(N3CC(C)(O)C3)n2)cc1 [Compound 76] | > 50 | < 0.025 | > 50 | – |
| Cc1ccc(S(=O)(=O)Nc2ccc(Sc3nc(Nc4cc(C)[nH]n4)cc(N4CCC4)n3)cc2)cc1 [Compound 27] | > 50 | < 0.025 | – | – |
| Cc1cc(Nc2cc(N3CCC3)nc(Sc3ccc(NC(=O)c4cccc(C)c4Cl)cc3)n2)n[nH]1 [Compound 161] | > 50 | < 0.025 | – | ≤ 0.001 |
| Cc1cc(Nc2cc(N3CCC3)nc(Sc3ccc(NC(=O)c4cccc(Cl)c4)cc3)n2)n[nH]1 [Compound 53] | > 50 | < 0.025 | – | – |
| Cc1cc(Nc2cc(N3CC(N4CC[C@H](F)C4)C3)nc(Sc3ccc4ncccc4c3)n2)n[nH]1 [Compound 160] | > 50 | < 0.025 | – | – |
